{
  "sequences": {"note": "By UniProt entry, the sequences of proteins in these tests, tags left out. Where a name states a change or a piece, a line headed by the entry shows the natural chain unless it says otherwise.", "UniProt P78316": "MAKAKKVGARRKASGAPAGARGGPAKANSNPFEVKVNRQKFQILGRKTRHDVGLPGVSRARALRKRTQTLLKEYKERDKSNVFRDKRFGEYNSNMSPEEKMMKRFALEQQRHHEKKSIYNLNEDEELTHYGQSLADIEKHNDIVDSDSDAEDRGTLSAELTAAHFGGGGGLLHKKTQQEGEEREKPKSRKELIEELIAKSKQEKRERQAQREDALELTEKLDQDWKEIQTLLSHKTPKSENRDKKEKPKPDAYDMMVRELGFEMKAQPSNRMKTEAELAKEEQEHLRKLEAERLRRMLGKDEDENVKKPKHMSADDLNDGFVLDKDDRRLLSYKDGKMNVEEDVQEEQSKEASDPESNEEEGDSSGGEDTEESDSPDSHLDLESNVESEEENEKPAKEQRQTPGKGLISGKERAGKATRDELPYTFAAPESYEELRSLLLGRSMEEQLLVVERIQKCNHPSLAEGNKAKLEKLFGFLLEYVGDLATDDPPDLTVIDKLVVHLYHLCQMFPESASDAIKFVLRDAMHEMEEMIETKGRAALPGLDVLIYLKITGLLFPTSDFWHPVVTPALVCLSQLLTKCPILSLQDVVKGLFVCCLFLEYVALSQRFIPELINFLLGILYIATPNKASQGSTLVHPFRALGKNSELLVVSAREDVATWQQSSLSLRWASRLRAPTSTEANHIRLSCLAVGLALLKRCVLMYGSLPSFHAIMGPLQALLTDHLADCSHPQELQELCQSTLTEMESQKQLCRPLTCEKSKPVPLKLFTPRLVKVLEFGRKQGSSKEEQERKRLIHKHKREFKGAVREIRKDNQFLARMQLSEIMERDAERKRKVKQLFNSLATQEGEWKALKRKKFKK", "UniProt O43776": "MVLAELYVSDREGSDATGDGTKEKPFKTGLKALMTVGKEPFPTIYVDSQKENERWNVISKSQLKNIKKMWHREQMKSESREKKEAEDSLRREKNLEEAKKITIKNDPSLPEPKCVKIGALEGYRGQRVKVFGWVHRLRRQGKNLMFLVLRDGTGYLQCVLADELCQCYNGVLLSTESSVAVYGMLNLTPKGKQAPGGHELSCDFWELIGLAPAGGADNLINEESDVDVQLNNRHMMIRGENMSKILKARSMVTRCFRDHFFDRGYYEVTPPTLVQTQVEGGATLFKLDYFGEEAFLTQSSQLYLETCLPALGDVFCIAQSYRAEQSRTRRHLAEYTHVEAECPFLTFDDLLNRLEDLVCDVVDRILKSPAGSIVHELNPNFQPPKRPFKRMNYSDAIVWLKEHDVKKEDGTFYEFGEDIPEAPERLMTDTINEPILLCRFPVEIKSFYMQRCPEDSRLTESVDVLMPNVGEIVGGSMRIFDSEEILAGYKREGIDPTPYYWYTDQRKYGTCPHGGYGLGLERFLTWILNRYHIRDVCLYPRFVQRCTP", "UniProt Q6ZNJ1": "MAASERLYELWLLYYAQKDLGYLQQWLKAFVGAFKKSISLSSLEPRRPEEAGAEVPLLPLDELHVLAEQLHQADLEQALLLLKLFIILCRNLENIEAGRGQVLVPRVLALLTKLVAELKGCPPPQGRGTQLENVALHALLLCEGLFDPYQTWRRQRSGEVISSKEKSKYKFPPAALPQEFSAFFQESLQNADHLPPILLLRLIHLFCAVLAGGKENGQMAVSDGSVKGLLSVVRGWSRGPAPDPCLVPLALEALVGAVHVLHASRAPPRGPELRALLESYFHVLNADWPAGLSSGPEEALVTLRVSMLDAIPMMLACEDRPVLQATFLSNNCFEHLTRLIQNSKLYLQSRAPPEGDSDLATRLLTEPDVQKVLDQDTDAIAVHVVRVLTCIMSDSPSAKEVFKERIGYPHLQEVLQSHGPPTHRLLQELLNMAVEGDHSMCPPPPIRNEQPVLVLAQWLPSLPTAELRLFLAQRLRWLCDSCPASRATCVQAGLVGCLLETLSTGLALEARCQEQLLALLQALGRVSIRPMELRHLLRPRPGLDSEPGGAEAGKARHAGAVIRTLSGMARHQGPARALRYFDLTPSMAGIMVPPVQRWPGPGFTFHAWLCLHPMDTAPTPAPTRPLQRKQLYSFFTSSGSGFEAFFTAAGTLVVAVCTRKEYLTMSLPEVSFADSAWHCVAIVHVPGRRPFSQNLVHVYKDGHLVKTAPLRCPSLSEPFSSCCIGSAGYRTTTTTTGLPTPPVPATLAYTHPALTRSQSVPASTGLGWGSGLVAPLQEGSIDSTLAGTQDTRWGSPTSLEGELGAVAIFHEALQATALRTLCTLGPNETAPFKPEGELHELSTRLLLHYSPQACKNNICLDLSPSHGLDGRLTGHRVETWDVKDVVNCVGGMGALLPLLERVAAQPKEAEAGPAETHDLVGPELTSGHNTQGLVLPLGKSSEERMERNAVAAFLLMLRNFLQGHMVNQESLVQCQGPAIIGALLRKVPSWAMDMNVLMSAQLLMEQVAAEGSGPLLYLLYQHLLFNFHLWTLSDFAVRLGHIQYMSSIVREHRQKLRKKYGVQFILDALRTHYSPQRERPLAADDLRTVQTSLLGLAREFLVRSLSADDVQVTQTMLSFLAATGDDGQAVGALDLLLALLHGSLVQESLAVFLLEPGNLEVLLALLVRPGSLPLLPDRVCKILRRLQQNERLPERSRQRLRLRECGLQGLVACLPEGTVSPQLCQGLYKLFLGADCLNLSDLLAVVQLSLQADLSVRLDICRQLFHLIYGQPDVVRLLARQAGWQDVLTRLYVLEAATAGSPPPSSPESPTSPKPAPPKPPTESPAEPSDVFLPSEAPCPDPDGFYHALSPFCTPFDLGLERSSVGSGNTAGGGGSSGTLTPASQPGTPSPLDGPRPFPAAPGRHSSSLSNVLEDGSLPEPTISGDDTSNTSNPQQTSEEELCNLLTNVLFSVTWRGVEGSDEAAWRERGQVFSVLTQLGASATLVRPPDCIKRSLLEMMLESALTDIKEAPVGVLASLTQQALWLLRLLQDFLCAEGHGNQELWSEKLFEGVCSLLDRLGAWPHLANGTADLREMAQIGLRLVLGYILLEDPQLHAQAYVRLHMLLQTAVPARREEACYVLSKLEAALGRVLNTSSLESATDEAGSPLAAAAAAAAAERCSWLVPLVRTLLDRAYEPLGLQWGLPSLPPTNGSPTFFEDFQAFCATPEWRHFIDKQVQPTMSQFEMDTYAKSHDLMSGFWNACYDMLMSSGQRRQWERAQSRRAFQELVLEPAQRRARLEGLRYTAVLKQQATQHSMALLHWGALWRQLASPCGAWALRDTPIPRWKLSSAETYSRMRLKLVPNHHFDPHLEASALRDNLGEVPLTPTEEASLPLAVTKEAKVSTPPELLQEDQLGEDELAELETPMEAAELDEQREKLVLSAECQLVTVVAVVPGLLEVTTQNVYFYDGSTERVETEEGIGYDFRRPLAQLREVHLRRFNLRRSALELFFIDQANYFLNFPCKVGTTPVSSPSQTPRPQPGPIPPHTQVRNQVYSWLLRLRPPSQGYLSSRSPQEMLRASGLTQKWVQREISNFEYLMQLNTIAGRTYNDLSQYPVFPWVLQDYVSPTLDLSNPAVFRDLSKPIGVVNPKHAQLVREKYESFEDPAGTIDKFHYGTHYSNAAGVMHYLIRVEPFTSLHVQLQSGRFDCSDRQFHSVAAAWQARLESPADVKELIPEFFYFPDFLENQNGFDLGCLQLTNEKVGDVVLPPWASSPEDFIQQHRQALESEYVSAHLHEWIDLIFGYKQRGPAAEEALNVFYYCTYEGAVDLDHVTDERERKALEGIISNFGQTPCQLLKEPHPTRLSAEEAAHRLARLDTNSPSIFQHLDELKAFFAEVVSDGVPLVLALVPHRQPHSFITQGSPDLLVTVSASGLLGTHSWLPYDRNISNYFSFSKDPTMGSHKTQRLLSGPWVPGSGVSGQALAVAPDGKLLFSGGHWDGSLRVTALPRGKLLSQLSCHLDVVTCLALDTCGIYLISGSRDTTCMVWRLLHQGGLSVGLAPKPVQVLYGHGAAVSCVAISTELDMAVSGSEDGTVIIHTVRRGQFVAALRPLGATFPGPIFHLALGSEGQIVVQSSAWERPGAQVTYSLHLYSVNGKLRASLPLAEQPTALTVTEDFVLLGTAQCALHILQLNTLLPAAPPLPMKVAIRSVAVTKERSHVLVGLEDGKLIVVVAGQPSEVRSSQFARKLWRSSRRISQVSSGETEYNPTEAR", "UniProt P15531, whole entry, looked up": "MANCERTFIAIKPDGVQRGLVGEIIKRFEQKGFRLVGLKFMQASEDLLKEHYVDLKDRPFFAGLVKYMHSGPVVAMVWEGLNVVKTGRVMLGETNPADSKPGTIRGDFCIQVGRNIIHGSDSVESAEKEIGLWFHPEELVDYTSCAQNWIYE", "UniProt Q9NV35": "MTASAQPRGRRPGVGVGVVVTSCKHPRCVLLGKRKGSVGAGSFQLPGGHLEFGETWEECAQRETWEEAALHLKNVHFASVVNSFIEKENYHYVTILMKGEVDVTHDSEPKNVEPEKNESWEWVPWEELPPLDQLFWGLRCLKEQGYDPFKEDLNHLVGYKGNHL", "UniProt Q8TBE9": "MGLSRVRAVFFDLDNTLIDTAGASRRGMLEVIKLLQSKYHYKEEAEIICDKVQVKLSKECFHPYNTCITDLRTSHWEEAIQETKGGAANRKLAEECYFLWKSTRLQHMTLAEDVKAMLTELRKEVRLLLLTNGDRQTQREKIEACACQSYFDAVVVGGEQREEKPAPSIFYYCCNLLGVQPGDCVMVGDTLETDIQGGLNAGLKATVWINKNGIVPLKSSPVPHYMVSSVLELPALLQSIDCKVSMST", "UniProt P30419": "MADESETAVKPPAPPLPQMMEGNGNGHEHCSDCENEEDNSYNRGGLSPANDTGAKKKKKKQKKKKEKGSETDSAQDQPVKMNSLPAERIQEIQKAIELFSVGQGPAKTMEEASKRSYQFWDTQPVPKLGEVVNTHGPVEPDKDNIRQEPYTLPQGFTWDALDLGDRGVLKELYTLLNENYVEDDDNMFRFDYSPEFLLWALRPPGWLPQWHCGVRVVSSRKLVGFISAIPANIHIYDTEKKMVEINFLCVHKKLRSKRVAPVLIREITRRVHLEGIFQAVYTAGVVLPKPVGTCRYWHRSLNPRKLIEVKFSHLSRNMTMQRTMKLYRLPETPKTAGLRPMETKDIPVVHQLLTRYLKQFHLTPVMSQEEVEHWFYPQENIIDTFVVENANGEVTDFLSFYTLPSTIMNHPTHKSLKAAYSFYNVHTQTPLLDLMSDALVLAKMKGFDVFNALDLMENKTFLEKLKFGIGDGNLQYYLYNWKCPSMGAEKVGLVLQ", "UniProt Q8WTT2": "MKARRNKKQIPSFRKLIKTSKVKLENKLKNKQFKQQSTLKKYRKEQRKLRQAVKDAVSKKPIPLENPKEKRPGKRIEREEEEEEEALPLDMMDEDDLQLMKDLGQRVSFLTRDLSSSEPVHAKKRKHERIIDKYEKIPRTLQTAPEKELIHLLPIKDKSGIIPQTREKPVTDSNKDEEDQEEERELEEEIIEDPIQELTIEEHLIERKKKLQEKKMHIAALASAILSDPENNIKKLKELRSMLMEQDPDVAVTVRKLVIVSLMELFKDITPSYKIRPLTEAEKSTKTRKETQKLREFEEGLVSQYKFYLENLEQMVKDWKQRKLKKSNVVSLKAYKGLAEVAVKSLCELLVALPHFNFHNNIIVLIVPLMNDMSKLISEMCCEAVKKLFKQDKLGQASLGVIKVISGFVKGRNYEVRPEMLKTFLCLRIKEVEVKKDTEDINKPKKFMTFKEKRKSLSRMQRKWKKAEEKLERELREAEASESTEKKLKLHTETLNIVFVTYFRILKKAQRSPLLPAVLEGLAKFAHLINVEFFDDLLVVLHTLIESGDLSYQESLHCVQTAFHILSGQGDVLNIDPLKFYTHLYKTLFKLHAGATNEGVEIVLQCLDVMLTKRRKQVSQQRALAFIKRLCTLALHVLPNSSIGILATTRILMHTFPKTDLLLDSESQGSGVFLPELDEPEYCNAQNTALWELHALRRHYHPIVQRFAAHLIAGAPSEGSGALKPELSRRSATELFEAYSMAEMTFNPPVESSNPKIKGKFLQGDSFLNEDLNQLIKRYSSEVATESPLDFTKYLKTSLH", "UniProt P55769": "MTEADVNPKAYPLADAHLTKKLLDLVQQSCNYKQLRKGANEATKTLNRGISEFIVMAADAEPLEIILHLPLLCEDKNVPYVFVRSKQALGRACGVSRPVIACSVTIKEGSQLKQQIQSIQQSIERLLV", "UniProt O95139, whole entry": "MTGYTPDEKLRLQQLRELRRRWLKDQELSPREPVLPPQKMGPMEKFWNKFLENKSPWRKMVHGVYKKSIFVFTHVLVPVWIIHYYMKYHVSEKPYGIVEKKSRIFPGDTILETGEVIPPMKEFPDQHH", "UniProt O00217, whole entry": "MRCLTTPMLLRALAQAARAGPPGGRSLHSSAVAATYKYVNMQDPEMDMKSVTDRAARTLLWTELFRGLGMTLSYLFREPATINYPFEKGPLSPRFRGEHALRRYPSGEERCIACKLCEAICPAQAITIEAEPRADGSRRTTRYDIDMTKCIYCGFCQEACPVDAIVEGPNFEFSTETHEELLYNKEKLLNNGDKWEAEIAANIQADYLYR"},
  "source": "the supplement of paper PMC7666118",
  "note": "The list shows a part of the results.",
  "data": [
    {"compound": "COc1ccc(Cn2ccc3cc(C)c(C(=O)NO)cc32)cc1", "test": "dose-dependent thermal stabilisation call (2D-TPP, DLPTP, 10% FDR) (binary (1 = stabilised)); higher = stabilised by the compound", "conditions": "system: HL-60 intact cells; concentration range 0.04-10 µM", "protocol": "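2D thermal proteome profiling in intact HL-60 cells treated with BRD-3811 (0, 0.04, 0.29, 2, 10 uM) for 90 min at 37 C, then heated 3 min at one of 12 temperatures (42-63.9 C). Soluble protein was quantified by TMT10 MS. The value is the DLPTP call of the paper: dose-dependent thermal stabilisation over all temperatures at 10% FDR (F-test of a dose-response against a flat model); one experiment, one call per tested protein.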", "values": [
      {"target": "NUP35 (UniProt Q8NFH5)", "dose-dependent thermal stabilisation call": "inactive: 0"},
      {"target": "NSF (UniProt P46459)", "dose-dependent thermal stabilisation call": "inactive: 0"},
      {"target": "NOP14 (UniProt P78316)", "dose-dependent thermal stabilisation call": "inactive: 0"},
      {"target": "NDRG1 (UniProt Q92597)", "dose-dependent thermal stabilisation call": "inactive: 0"},
      {"target": "NARS (UniProt O43776)", "dose-dependent thermal stabilisation call": "inactive: 0"},
      {"target": "NUFIP2 (UniProt Q7Z417)", "dose-dependent thermal stabilisation call": "inactive: 0"},
      {"target": "NOL8 (UniProt Q76FK4)", "dose-dependent thermal stabilisation call": "inactive: 0"},
      {"target": "NOM1 (UniProt Q5C9Z4)", "dose-dependent thermal stabilisation call": "inactive: 0"},
      {"target": "NBEAL2 (UniProt Q6ZNJ1)", "dose-dependent thermal stabilisation call": "inactive: 0"},
      {"target": "NME1-NME2 (UniProt P15531)", "dose-dependent thermal stabilisation call": "inactive: 0"},
      {"target": "NDUFA10 (UniProt O95299)", "dose-dependent thermal stabilisation call": "inactive: 0"},
      {"target": "NUDT15 (UniProt Q9NV35)", "dose-dependent thermal stabilisation call": "inactive: 0"},
      {"target": "NUDT4 (UniProt Q9NZJ9)", "dose-dependent thermal stabilisation call": "inactive: 0"},
      {"target": "NUMB (UniProt P49757)", "dose-dependent thermal stabilisation call": "inactive: 0"},
      {"target": "NANP (UniProt Q8TBE9)", "dose-dependent thermal stabilisation call": "inactive: 0"},
      {"target": "NAPG (UniProt Q99747)", "dose-dependent thermal stabilisation call": "inactive: 0"},
      {"target": "NMT1 (UniProt P30419)", "dose-dependent thermal stabilisation call": "inactive: 0"},
      {"target": "NUTF2 (UniProt P61970)", "dose-dependent thermal stabilisation call": "inactive: 0"},
      {"target": "NOC3L (UniProt Q8WTT2)", "dose-dependent thermal stabilisation call": "inactive: 0"},
      {"target": "ND5 (UniProt P03915)", "dose-dependent thermal stabilisation call": "inactive: 0"},
      {"target": "NCOR2 (UniProt Q9Y618)", "dose-dependent thermal stabilisation call": "inactive: 0"},
      {"target": "NLRC3 (UniProt Q7RTR2)", "dose-dependent thermal stabilisation call": "inactive: 0"},
      {"target": "NVL (UniProt O15381)", "dose-dependent thermal stabilisation call": "inactive: 0"},
      {"target": "NDE1 (UniProt Q9NXR1)", "dose-dependent thermal stabilisation call": "inactive: 0"},
      {"target": "NUDT8 (UniProt Q8WV74)", "dose-dependent thermal stabilisation call": "inactive: 0"},
      {"target": "NHP2L1 (UniProt P55769)", "dose-dependent thermal stabilisation call": "inactive: 0"},
      {"target": "NHLRC2 (UniProt Q8NBF2)", "dose-dependent thermal stabilisation call": "inactive: 0"},
      {"target": "NUP37 (UniProt Q8NFH4)", "dose-dependent thermal stabilisation call": "inactive: 0"},
      {"target": "NUP205 (UniProt Q92621)", "dose-dependent thermal stabilisation call": "inactive: 0"},
      {"target": "NME4 (UniProt O00746)", "dose-dependent thermal stabilisation call": "inactive: 0"},
      {"target": "NDUFB6 (UniProt O95139)", "dose-dependent thermal stabilisation call": "inactive: 0"},
      {"target": "NDUFS8 (UniProt O00217)", "dose-dependent thermal stabilisation call": "inactive: 0"},
      {"target": "NCBP1 (UniProt Q09161)", "dose-dependent thermal stabilisation call": "inactive: 0"},
      {"target": "NOC2L (UniProt Q9Y3T9)", "dose-dependent thermal stabilisation call": "inactive: 0"},
      {"target": "NUP54 (UniProt Q7Z3B4)", "dose-dependent thermal stabilisation call": "inactive: 0"},
      {"target": "NBN (UniProt O60934)", "dose-dependent thermal stabilisation call": "inactive: 0"}
    ]}
  ]
}
